PubChem BioAssay AID1259254 – NCATS | 2017
In all, the deposit lists about 59,000 reagents; this is a part drawn at random. Of all reagents, about 1,550 (2.6%) were called active. 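G2 share is only a proxy for re-replication; each gene was hit by three separate siRNAs, and active genes were retested.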 The raw values are shown without normalisation. The numbers tell different reagents against one gene apart. Reagent sequences are not shown. The record does not give: the amount of reagent.

Test: 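Finding genes that stop cells copying their DNA twice in one cycle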 (primary screen)
Cell system: human HCT116 colorectal cancer cells
Knock-down reagent: single siRNA against human genes
Timing: 3 days
Detection: 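Imaged Hoechst DNA stain sorts each cell into a cycle phase by DNA amount; per plate, G2 fraction set to 0% for non-targeting and 100% for GMNN siRNA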
Direction: G2 robust z-score and G2 cells, % of GMNN control: higher = more G2 cells, more excess DNA replication; raw share of cells in G2: higher = larger share of cells with G2 DNA content
Active means: 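An siRNA counts as active if its G2 robust z-score lies at least 5 MADs above the screen median; here such calls match roughly 38% of GMNN control or more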

target gene	reagent no.	G2 robust z-score	G2 cells, % of GMNN control	raw share of cells in G2 (%)	Call
PCED1A (PC-esterase domain containing 1A)	1	0.311	5.15	6.83	inactive
PCED1A (PC-esterase domain containing 1A)	2	0.227	4.56	6.65	inactive
PCED1A (PC-esterase domain containing 1A)	3	-1.2	-5.5	1.24	inactive
OR52E6 (olfactory receptor family 52 subfamily E member 6)	1	-0.469	-0.332	3.66	inactive
OR52E6 (olfactory receptor family 52 subfamily E member 6)	2	0.512	6.57	6.26	inactive
OR52E6 (olfactory receptor family 52 subfamily E member 6)	3	0.353	5.45	6.97	inactive
E2F2 (E2F transcription factor 2)	1	-0.317	0.736	5.5	inactive
E2F2 (E2F transcription factor 2)	2	0.504	6.52	7.74	inactive
E2F2 (E2F transcription factor 2)	3	-0.158	1.86	4.32	inactive
DIDO1 (death inducer-obliterator 1)	1	0.511	6.56	7.56	inactive
DIDO1 (death inducer-obliterator 1)	2	3.57	28.1	15.7	inactive
DIDO1 (death inducer-obliterator 1)	3	3.13	25	12.5	inactive
SEM1 (SEM1 26S proteasome subunit)	1	-0.244	1.25	5.69	inactive
SEM1 (SEM1 26S proteasome subunit)	2	-0.382	0.282	4.01	inactive
SEM1 (SEM1 26S proteasome subunit)	3	0.0588	3.38	6.19	inactive
SEM1 (SEM1 26S proteasome subunit)	4	0.565	6.94	5.8	inactive
SEM1 (SEM1 26S proteasome subunit)	5	-0.979	-3.92	2.39	inactive
SEM1 (SEM1 26S proteasome subunit)	6	0.156	4.06	5.13	inactive
LNCRI (lncRNA radiation induced regulator of PLK1 and RAD51)	1	-1.19	-5.38	1.85	inactive
LNCRI (lncRNA radiation induced regulator of PLK1 and RAD51)	2	0.39	5.71	5.78	inactive
LNCRI (lncRNA radiation induced regulator of PLK1 and RAD51)	3	-0.449	-0.19	4.71	inactive
IDI1 (isopentenyl-diphosphate delta isomerase 1)	1	-0.448	-0.183	4.98	inactive
IDI1 (isopentenyl-diphosphate delta isomerase 1)	2	1.18	11.3	8.34	inactive
IDI1 (isopentenyl-diphosphate delta isomerase 1)	3	-0.971	-3.86	4.21	inactive
PROK1 (prokineticin 1)	1	0.641	7.47	6.59	inactive
PROK1 (prokineticin 1)	2	0.51	6.55	5.4	inactive
PROK1 (prokineticin 1)	3	-0.841	-2.95	1.51	inactive
NUMBL (NUMB like endocytic adaptor protein)	1	1.79	15.5	10.3	inactive
NUMBL (NUMB like endocytic adaptor protein)	2	-1.37	-6.64	2.93	inactive
NUMBL (NUMB like endocytic adaptor protein)	3	-0.141	1.98	5.43	inactive
SKIL (SKI like proto-oncogene)	1	0.472	6.29	5.96	inactive
SKIL (SKI like proto-oncogene)	2	0.325	5.25	7.31	inactive
SKIL (SKI like proto-oncogene)	3	1.3	12.1	7.5	inactive
KIFBP (kinesin family binding protein)	1	-0.344	0.545	4.62	inactive
KIFBP (kinesin family binding protein)	2	1.56	14	9.98	inactive
KIFBP (kinesin family binding protein)	3	0.608	7.25	5.83	inactive
UBQLN4 (ubiquilin 4)	1	0.423	5.95	6.69	inactive
UBQLN4 (ubiquilin 4)	2	0.19	4.3	6.52	inactive
UBQLN4 (ubiquilin 4)	3	4.48	34.5	14	inactive
HPX-2 (retired record)	1	-0.281	0.99	3.76	inactive
HPX-2 (retired record)	2	-1.02	-4.23	1.61	inactive
HPX-2 (retired record)	3	-0.865	-3.12	1.85	inactive
RPL22L1 (ribosomal protein L22 like 1)	1	0.397	5.76	5.67	inactive
RPL22L1 (ribosomal protein L22 like 1)	2	3.26	25.9	11.6	inactive
RPL22L1 (ribosomal protein L22 like 1)	3	5.9	44.5	16.8	active
LAMP2 (lysosome associated membrane protein 2)	1	0.33	5.29	7.22	inactive
LAMP2 (lysosome associated membrane protein 2)	2	1.25	11.7	8.86	inactive
LAMP2 (lysosome associated membrane protein 2)	3	-0.892	-3.31	2.16	inactive

Records above whose gene name begins with R or r:
target gene	reagent no.	G2 robust z-score	G2 cells, % of GMNN control	raw share of cells in G2 (%)	Call
RPL22L1 (ribosomal protein L22 like 1)	1	0.397	5.76	5.67	inactive
RPL22L1 (ribosomal protein L22 like 1)	2	3.26	25.9	11.6	inactive
RPL22L1 (ribosomal protein L22 like 1)	3	5.9	44.5	16.8	active
